The record followed here is patent US20230143612A1 (Arbutus Biopharma Corporation, priority 2020, published 2023).

By UniProt entry, the sequences of proteins in these tests, tags left out. Residues count along the entry.
UniProt Q9NZQ7, 19-238 limits assumed: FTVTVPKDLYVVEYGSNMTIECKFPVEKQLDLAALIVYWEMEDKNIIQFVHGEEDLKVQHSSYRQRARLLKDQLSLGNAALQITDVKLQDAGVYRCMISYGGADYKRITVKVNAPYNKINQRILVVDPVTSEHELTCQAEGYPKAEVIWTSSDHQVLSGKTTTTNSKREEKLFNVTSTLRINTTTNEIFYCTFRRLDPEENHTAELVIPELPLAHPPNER

The match of structure and compound is tentative.

In this assay the target is PD-L1 His protein / PD-1 Fc protein (Homo sapiens, UniProt Q9NZQ7). As to the kind of experiment: HTRF Assay (PD-1/PD-L1 interaction). As to conditions: read-out: PD-L1 HTRF IC50; PD-L1 His 6 nM, PD-1 Fc 6 nM. The protocol:
PD-L1 His protein was prepared and added at the final concentration of 6 nM in the White opaque 384 well plate (Corning cat #3824BC). PD-L1 small molecule inhibitors were diluted by 3-fold starting from 20 μM and a final concentration of 0.001 μM and added to the well. PD-1 Fc protein was added at the final concentration of 6 nM. PD-L1 His protein, PD-L1 small molecule inhibitors, and PD1 Fc proteins were added to the well in this order, with each 5 μl volume, and were incubated for 15 minutes at room temperature. PAb anti-Human IgG-XL665 (Cisbio, cat #61HFCXLA) and Mab anti-6HIS Tb cryptate Gold (Cisbio, cat #61HI2TLA) were mixed at 6.7 nM and 0.35 nM respectively, and total 5 μl volume of mixture was added to the well and incubated at room temperature for 1 hour. The plate was read using PerkinElmer Envision plate reader and data was analyzed by Prism 6 software.
(TR-FRET usually uses a lanthanide donor and a delayed reading to cut background.)

In the case of `Cc1c(OCc2cc(OCc3cncc(C#N)c3)c(CNC[C@@H]3CCC(=O)N3)cc2Cl)cccc1-c1cccc(-c2ccn3c(=O)c(CNC[C@@H]4CCC(=O)N4)cnc3c2)c1C`, the IC50 turned out to be 13 nM. The figure for `Cc1c(OCc2cc(OCc3cncc(C#N)c3)c(CNCCO)cc2Cl)cccc1-c1cccc(-c2ccn3c(=O)c(CNCCO)cnc3c2)c1C` is 4.8 nM.

As usually defined, the IC50 is the concentration that gives 50% inhibition.
